Source: article PMC8803322
These are yes or no findings as the source states them, for the method shown. Some entries that bind do so weakly or less than the wild type.

By UniProt entry, the sequences of proteins in these tests, tags left out.
UniProt P35713: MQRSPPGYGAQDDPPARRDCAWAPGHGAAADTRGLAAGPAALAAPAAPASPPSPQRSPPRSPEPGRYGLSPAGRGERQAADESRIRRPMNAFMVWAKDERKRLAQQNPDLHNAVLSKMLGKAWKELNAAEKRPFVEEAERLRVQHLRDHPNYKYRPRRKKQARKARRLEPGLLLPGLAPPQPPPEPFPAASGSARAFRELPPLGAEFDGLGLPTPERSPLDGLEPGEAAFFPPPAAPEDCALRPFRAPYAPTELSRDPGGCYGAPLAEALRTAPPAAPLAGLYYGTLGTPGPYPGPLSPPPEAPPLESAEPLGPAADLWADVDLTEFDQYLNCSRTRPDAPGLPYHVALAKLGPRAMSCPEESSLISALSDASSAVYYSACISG
UniProt Q06330: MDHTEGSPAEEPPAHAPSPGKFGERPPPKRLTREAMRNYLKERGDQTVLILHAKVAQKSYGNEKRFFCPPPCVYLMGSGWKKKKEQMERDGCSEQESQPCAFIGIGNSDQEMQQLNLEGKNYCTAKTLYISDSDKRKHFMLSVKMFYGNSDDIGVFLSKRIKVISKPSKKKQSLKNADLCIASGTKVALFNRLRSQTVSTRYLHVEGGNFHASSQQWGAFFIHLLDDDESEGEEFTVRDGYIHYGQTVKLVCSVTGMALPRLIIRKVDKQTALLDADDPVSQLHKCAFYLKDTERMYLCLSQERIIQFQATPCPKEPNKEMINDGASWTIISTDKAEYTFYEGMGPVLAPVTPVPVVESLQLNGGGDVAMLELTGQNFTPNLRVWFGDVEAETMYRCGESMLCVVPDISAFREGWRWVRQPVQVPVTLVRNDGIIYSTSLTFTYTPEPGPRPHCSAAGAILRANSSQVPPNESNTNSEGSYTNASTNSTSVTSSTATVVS

Target: SRY (sex-determining region Y) box transcription factor 18 (SOX18) (human) (UniProt P35713)
Experiment: AlphaScreen or HTRF; AlphaLISAScreen on cell-free co-expressed protein pairs (N-terminal enhanced GFP or C-terminal mCherry tags); anti-GFP acceptor beads, biotinylated anti-mCherry nanobody, streptavidin donor beads; 90 minutes at room temperature; DMSO vehicle control defined as 100% binding (0% inhibition), SOX18:FRB control defined as 100% inhibition

binding | Substance
binds | recombinant signal binding protein for immunoglobulin κ J region (RBPJ) (from UniProt Q06330 1-500)
binds | SRY (sex-determining region Y) box transcription factor 18 (SOX18) (from UniProt P35713 1-384)
